Reference: the supplement of paper PMC11732987, “Enantioselective OTUD7B fragment discovery through chemoproteomics screening and high-throughput optimisation” (Communications Chemistry, 2025)
The list shows a part of the results. The data scatter; read single values as rough.

The chains behind the UniProt entries cited, without tags or fusion partners. Where a name states a change or a piece, a line headed by the entry shows the natural chain unless it says otherwise. Residues count along the entry.
UniProt Q8IWV8: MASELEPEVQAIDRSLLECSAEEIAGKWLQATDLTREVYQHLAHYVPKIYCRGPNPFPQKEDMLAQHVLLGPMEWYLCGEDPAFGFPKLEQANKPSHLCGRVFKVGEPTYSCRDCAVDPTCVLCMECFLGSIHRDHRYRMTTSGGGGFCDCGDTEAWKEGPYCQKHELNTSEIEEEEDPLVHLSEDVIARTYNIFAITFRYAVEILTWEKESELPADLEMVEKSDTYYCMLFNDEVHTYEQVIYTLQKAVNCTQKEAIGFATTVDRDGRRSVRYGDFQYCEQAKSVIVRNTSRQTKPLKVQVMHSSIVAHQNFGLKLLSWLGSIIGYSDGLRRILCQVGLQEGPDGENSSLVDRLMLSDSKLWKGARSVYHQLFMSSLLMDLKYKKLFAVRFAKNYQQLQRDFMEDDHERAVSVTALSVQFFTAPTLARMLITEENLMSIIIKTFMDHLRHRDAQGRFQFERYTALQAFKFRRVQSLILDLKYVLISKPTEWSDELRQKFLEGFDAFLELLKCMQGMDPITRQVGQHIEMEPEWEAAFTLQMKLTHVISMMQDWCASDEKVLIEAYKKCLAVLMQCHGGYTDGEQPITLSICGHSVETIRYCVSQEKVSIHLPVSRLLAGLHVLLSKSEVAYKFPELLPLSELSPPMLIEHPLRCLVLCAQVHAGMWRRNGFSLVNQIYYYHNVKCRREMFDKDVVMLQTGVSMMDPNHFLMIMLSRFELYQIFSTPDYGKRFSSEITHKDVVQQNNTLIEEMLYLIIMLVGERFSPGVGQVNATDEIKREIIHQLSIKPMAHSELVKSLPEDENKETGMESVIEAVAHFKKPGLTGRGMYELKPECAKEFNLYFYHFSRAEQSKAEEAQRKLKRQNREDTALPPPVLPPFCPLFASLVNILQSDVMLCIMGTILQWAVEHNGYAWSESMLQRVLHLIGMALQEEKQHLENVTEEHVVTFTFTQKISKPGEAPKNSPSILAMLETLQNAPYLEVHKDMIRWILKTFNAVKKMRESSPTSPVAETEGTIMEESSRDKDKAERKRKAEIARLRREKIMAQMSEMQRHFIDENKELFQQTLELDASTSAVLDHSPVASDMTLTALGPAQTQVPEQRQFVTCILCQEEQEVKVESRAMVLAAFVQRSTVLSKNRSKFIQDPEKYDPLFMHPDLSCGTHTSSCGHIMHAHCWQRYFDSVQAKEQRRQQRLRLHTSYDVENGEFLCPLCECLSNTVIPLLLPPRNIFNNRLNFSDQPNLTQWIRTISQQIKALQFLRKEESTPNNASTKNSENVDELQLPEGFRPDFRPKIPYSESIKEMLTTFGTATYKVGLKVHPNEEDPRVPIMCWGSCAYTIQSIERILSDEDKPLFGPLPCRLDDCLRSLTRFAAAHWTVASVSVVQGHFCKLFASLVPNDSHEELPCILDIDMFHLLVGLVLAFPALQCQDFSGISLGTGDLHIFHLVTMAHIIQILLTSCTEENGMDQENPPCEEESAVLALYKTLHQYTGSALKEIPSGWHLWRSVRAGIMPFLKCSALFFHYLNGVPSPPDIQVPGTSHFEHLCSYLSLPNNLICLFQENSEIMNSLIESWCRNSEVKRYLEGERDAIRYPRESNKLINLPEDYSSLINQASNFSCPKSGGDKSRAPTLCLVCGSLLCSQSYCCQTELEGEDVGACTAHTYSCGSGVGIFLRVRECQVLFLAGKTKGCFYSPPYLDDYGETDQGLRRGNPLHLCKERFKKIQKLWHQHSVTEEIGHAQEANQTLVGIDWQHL
UniProt O15042: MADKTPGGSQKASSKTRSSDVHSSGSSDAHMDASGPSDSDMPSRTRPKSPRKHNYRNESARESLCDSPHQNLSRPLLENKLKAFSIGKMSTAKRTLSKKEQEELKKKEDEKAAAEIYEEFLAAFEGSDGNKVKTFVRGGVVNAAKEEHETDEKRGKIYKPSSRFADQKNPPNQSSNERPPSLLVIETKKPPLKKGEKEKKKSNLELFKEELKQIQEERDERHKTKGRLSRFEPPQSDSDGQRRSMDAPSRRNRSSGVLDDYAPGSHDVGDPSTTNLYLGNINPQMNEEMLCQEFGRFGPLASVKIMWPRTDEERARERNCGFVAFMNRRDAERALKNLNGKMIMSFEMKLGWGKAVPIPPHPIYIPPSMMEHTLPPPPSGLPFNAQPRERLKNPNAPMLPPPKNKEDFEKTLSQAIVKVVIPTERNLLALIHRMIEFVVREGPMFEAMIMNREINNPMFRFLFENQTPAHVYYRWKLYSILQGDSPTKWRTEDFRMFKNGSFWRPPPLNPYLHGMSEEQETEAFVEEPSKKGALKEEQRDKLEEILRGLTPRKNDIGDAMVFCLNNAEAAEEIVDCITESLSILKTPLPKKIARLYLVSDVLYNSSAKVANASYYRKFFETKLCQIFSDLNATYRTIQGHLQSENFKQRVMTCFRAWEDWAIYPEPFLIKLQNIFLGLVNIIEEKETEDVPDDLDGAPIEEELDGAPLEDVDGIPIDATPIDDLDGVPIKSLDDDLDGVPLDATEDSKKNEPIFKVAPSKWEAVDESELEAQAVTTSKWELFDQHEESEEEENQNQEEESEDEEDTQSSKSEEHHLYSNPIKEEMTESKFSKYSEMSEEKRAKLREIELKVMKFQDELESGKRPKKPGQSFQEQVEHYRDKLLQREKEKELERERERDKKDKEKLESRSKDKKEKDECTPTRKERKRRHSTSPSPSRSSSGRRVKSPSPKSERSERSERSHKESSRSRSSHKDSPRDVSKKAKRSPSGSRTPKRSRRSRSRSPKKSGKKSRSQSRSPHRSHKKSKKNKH
UniProt Q8IWV7: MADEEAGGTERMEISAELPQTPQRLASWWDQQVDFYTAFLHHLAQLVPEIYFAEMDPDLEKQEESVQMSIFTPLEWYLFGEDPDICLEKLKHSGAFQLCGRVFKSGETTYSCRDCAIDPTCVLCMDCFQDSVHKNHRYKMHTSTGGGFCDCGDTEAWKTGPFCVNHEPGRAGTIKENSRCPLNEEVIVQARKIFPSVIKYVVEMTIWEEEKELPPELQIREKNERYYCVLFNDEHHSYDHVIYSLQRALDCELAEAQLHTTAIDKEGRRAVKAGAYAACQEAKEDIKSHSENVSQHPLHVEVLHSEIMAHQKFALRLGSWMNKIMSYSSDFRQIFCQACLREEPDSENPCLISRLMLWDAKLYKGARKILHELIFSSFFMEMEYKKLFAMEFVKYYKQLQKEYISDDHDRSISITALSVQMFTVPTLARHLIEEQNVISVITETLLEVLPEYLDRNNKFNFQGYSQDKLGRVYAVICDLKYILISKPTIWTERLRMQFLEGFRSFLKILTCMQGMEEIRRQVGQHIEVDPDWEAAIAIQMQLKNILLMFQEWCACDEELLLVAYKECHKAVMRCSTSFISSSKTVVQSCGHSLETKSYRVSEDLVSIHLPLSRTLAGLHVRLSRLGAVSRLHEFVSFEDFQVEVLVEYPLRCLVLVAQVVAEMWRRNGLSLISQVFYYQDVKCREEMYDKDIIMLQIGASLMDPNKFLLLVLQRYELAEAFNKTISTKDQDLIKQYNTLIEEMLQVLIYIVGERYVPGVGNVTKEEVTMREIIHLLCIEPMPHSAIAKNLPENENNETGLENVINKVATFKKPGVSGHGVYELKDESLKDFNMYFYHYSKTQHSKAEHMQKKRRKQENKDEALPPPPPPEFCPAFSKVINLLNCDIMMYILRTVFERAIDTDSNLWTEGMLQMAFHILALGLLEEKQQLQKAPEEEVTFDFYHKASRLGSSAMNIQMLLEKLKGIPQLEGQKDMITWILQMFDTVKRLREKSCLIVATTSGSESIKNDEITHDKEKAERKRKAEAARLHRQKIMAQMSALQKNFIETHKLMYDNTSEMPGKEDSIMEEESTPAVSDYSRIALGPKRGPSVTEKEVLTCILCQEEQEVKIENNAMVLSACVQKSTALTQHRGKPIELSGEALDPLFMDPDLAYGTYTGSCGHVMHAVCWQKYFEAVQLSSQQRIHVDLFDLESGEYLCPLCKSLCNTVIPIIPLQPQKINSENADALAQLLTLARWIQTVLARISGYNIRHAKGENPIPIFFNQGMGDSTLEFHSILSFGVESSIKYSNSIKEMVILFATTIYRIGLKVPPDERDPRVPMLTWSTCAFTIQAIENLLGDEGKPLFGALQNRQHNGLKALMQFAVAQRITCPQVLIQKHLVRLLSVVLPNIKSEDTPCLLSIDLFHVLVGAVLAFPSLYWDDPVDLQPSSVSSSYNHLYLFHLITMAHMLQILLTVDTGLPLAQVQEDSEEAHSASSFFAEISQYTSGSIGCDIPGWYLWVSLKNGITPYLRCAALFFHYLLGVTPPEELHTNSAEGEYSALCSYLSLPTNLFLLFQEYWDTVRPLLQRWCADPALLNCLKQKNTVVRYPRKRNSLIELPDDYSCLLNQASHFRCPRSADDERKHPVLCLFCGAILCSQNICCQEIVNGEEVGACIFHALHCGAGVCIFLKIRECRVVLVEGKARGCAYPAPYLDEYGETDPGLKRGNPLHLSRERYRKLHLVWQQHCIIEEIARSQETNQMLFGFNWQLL
UniProt Q9NUP7: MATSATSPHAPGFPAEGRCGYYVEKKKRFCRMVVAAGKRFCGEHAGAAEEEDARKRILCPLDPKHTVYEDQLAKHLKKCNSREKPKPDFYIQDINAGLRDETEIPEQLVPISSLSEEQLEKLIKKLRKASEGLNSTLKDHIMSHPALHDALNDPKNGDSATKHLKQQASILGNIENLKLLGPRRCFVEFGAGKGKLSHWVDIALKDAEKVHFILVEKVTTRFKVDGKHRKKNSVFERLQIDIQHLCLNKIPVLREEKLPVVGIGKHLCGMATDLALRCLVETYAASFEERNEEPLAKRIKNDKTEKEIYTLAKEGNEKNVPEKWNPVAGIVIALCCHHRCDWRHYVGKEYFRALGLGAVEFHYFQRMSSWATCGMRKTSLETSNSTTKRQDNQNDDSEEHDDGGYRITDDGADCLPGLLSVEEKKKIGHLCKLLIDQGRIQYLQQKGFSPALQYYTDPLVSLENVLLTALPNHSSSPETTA
UniProt Q6NXR4, 174-202: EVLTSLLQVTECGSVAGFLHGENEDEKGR
UniProt Q5VYS8: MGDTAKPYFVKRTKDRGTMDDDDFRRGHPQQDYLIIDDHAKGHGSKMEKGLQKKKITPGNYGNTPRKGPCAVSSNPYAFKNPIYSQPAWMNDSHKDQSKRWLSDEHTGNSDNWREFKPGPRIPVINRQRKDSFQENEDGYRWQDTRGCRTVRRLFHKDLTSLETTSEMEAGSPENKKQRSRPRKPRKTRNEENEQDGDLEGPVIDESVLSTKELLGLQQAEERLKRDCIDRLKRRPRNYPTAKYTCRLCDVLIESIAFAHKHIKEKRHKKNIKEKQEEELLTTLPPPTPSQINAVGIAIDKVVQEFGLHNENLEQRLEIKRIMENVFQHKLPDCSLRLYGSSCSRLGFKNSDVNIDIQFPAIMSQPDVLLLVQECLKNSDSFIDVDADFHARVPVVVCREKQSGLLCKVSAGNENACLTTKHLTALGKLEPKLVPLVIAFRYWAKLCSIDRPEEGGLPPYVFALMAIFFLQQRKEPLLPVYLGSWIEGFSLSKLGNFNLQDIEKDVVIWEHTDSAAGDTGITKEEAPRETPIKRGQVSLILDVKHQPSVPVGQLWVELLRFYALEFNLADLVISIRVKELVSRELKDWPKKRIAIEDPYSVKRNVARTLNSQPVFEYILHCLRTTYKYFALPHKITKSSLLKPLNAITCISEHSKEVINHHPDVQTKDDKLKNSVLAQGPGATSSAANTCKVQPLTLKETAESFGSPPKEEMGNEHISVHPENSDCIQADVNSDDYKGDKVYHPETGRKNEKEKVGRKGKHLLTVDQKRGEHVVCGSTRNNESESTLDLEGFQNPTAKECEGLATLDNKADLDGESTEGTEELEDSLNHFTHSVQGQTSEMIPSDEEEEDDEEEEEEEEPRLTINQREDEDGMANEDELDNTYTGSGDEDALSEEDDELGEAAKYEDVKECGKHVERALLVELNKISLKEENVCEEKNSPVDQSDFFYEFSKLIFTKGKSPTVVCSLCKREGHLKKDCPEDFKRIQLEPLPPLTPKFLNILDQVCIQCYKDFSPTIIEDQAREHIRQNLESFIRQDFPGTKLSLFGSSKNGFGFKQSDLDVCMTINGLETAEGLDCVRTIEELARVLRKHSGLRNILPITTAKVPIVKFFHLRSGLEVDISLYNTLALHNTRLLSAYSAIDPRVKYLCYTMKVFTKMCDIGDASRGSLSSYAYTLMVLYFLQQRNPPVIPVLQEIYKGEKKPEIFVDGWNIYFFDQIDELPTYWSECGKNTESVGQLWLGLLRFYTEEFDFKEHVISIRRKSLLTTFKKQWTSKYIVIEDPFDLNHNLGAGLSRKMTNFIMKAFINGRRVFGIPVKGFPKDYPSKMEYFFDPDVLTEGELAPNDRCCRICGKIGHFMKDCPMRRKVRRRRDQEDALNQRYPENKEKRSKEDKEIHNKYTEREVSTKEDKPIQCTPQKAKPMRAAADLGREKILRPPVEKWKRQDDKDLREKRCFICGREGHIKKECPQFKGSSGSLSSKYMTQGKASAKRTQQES

Tests used:
[1] = compound: ClCC(=O)N[C@@H]1CCCc2ccccc12; experiment: log2 mean competition ratio of IA-DTB cysteine labelling (DMSO/compound) (log2 ratio); higher = stronger cysteine engagement by compound; conditions: treatment time: 4 h, cell line lysate: HEK293T
Description: (§1)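 IA-DTB competitive cysteine chemoproteomics in HEK293T RIPA lysate. Lysates were treated with compound 29 or 30 at 50 or 200 µM for 4 h, then IA-DTB (500 µM, 1 h), trypsin-digested, NeutrAvidin-enriched and analysed by diaPASEF. Competition ratio = intensity DMSO / intensity compound (n=4 treated, n=64 DMSO); binding: mean log2 CR ≥ 1 and p ≤ 0.05 plus QC filters. Target is the cysteine site.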

[2] = compound: ClCC(=O)N[C@H]1CCCc2ccccc12; experiment: as above; conditions: treatment time: 4 h, cell line lysate: HEK293T
Description: as §1

## UBR2 C1717 (UniProt Q8IWV8)
[1]; 50 µM
  log2 mean competition ratio: 0.284
[1]; 200 µM
  log2 mean competition ratio: 0.236
[2]; 50 µM
  log2 mean competition ratio: 0.25
[2]; 200 µM
  log2 mean competition ratio: 0.262

## U2SURP C65 (UniProt O15042)
[1]; 50 µM
  log2 mean competition ratio: 0.31
[1]; 200 µM
  log2 mean competition ratio: 0.113
[2]; 50 µM
  log2 mean competition ratio: -0.25
[2]; 200 µM
  log2 mean competition ratio: -0.00553

## UBR1 C589 (UniProt Q8IWV7)
[1]; 50 µM
  log2 mean competition ratio: -0.0924
[1]; 200 µM
  log2 mean competition ratio: -0.322
[2]; 50 µM
  log2 mean competition ratio: -0.0358
[2]; 200 µM
  log2 mean competition ratio: -0.354

## TRMT13 C185 (UniProt Q9NUP7)
[1]; 50 µM
  log2 mean competition ratio: 0.144
[1]; 200 µM
  log2 mean competition ratio: 0.0915
[2]; 50 µM
  log2 mean competition ratio: -0.000983
[2]; 200 µM
  log2 mean competition ratio: -0.073

## TTI2 C185 (UniProt Q6NXR4)
[1]; 50 µM
  log2 mean competition ratio: 0.0487
[1]; 200 µM
  log2 mean competition ratio: 0.261
[2]; 50 µM
  log2 mean competition ratio: 0.114
[2]; 200 µM
  log2 mean competition ratio: 0.145

## TTC39A C92
[1]; 50 µM
  log2 mean competition ratio: -0.212
[1]; 200 µM
  log2 mean competition ratio: -0.0143
[2]; 50 µM
  log2 mean competition ratio: 0.21
[2]; 200 µM
  log2 mean competition ratio: 0.221

## TUT7 C800 (UniProt Q5VYS8)
[1]; 50 µM
  log2 mean competition ratio: 0.0448
[1]; 200 µM
  log2 mean competition ratio: 0.0144
[2]; 50 µM
  log2 mean competition ratio: -0.133
[2]; 200 µM
  log2 mean competition ratio: 0.102

## UBE2M C65
[1]; 50 µM
  log2 mean competition ratio: -0.204
[1]; 200 µM
  log2 mean competition ratio: -0.352
[2]; 50 µM
  log2 mean competition ratio: -0.67
[2]; 200 µM
  log2 mean competition ratio: -0.302
